Test results from publication PMC11975131.
These are yes or no findings as the source states them, for the method shown. In cells and extracts the contact can be indirect. Here binding means that the protein was enriched with, or labelled near, the bait; the list need not be complete.

Biological target: IBV nsp15 (endoribonuclease, EndoU) (infectious bronchitis virus (IBV), Beaudette strain)
Assay: affinity purification with mass spectrometry; whole-cell lysates of H1299 cells infected with wild-type IBV (MOI 1; 18 h in the methods, 24 h in the legend) immunoprecipitated with 5 ug mouse anti-IBV nsp15 monoclonal antibody pre-bound to protein A + G beads; mouse IgG as control; five washes; LC-MS

B1: PABPN1 (protein, UniProt Q86U42 1-306)
chain: MAAAAAAAAAAGAAGGRGSGPGRRRHLVPGAGGEAGEGAPGGAGDYGNGLESEELEPEELLLEPEPEPEPEEEPPRPRAPPGAPGPGPGSGAPGSQEEEEEPGLVEGDPGDGAIEDPELEAIKARVREMEEEAEKLKELQNEVEKQMNMSPPPGNAGPVIMSIEEKMEADARSIYVGNVDYGATAEELEAHFHGCGSVNRVTILCDKFSGHPKGFAYIEFSDKESVRTSLALDESLFRGRQIKVIPKRTNRPGISTTDRGFPRARYRARTTNYNSSRSRFYSGFNSRPRGRVYRGRARATSWYSPY
binding: binds
